Source: PubChem BioAssay AID274 (DTP/NCI, 2004)
The list shows only some results of the screen, not a fair sample: it gathers tests that were run many times, whatever their T/C, doses with no T/C, and many T/C values between a quarter and a half above the control. Other doses and runs of a compound stand elsewhere. T/C is the treated group as % of the vehicle group. Some entries give survivors of the animals treated and no T/C: the source holds a T/C of zero for them, seemingly a mark for toxic or unscored doses. Some doses without a T/C left all or most animals alive at the check, yet need not have been tolerated: the source hardly ever lists a survival T/C far under the control, and the zero likely stands for such cases as well. Survivors were counted at the toxicity check, usually on the fifth day, unless a day is given; later deaths do not show. Schedule codes are those of the source, read here as Q, the interval in days (D) or hours (H), X, the number of doses. Some entries hold several experiments; their values stand side by side, smallest first. For survival time, this PubChem deposit counts one and a half times the control or more as active, and values a quarter to a half above the control carry no call in these data; other NCI protocols may use other cut-offs. Some T/C values carry the count of animals alive at the toxicity check (mostly the fifth day); without a count, all were alive then. Numbered stars: 1 amine (or outer) side, 2 acyl side, 3 side chain; on linkers, the order of the positions; unused ones are H or OH. Bridge positions count the residues as written; N and C are the ends. Square brackets hold non-standard residues; d marks the D form. Peptide text beside a SMILES is read from it. I, II: the chains in the order shown. Actinocin(9to1) = Cc1c2oc3c(C)ccc(C(=O)[*:1])c3nc-2c(C(=O)[*:2])c(N)c1=O; NMeV = CN[CH](C(=O)O)C(C)C; Aze = O=C(O)[CH]1CCN1; Sar = CNCC(=O)O

System: BDF1 mice, Lewis lung carcinoma iv, survival T/C
Assay: NCI In Vivo Anticancer Drug Screen. Data for tumor model Lewis Lung Carcinoma (intravenous) in B6D2F1 (BDF1) mice
Settings: T/C endpoint: median survival time, higher T/C = longer survival
Description: The antitumor activity of compounds was measured in mice bearing transplantable tumors. Survival or tumor size were measured and the results are expressed as the measurement made in the treated group (T) divided by the measurement made in the vehicle treated control group (C). The tumor model used in this assay is Lewis Lung Carcinoma (intravenous) in B6D2F1 (BDF1) mice

[1] = dose: 400.0 mg/kg/injection, schedule: Q01DX009 (ip), vehicle: saline with Tween-80
[2] = dose: 100.0 mg/kg/injection, schedule: Q01DX009 (ip), vehicle: Klucel (hydroxypropylcellulose) (HPC)
[3] = dose: 100.0 mg/kg/injection, schedule: Q01DX009 (ip), vehicle: saline
[4] = dose: 200.0 mg/kg/injection, schedule: Q01DX009 (ip), vehicle: saline
[5] = dose: 400.0 mg/kg/injection, schedule: Q01DX009 (ip), vehicle: saline
[6] = dose: 50.0 mg/kg/injection, schedule: Q01DX009 (ip), vehicle: saline
[7] = dose: 200.0 mg/kg/injection, schedule: Q01DX009 (ip), vehicle: saline with Tween-80
[8] = dose: 4.0 mg/kg/injection, schedule: Q01DX009 (ip), vehicle: saline
[9] = dose: 10.0 mg/kg/injection, schedule: Q04DX003 (ip), vehicle: saline

In the case of `CCOC(=O)C(N)CSC(=O)NC` (configuration not stated), the survivor count (dose: 800.0 mg/kg/injection, schedule: Q01DX009 (ip), vehicle: saline) is reported as 1 of 9.

`[O-][n+]1c(CN2CCCCC2)nc2cccc3c2c1-c1ccccc1-3` was tested, and the survivor count [1] was 3 of 10.

For `Cc1c2oc3c(C)ccc(C(=O)NC4C(=O)NC(C(C)C)C(=O)N5CCC5C(=O)N(C)CC(=O)N(C)C(C(C)C)C(=O)OC4C)c3nc-2c(C(=O)NC2C(=O)NC(C(C)C)C(=O)N3CCC3C(=O)N(C)CC(=O)N(C)C(C(C)C)C(=O)OC2C)c(N)c1=O` (configuration not stated) (I: TV[Aze][Sar][NMeV] / II: TV[Aze][Sar][NMeV]; ester I:1-I:C, II:1-II:C; linker I:N-II:N via Actinocin(9to1); configuration not given here), the survivor count (dose: 900.0 micrograms/kg/injection, schedule: Q04DX003 (ip), vehicle: saline + alcohol) was 8 of 8, the survivor count (dose: 1250.0 micrograms/kg/injection, schedule: Q04DX003 (ip), vehicle: saline + alcohol) was 7 of 8 and the survivor count (dose: 1500.0 micrograms/kg/injection, schedule: Q04DX003 (ip), vehicle: saline + alcohol) was 8 of 8. For the same compound, the survivor count (dose: 1800.0 micrograms/kg/injection, schedule: Q01DX001 (ip), vehicle: saline + alcohol) was 6 of 8 and the survivor count (dose: 3000.0 micrograms/kg/injection, schedule: Q01DX001 (ip), vehicle: saline + alcohol) was 0 of 8.

In the case of `CC1CN1C(=O)NCCCCCCNC(=O)N1CC1C` (configuration not stated), the T/C (dose: 5.0 mg/kg/injection, schedule: Q01DX009 (ip), vehicle: saline + alcohol) is reported as 130 % of control, the T/C (dose: 10.0 mg/kg/injection, schedule: Q01DX009 (ip), vehicle: saline + alcohol) is reported as 141 % of control and the survivor count (dose: 20.0 mg/kg/injection, schedule: Q01DX009 (ip), vehicle: saline + alcohol) is reported as 10 of 10. For the same compound, the survivor count (dose: 40.0 mg/kg/injection, schedule: Q01DX009 (ip), vehicle: saline + alcohol) was 7 of 10.

`O=C(NCCCN1CC1)C(=O)NCCCN1CC1` was tested, and the survivor count (dose: 6.0 mg/kg/injection, schedule: Q01DX009 (ip), vehicle: saline) was 10 of 10 and the survivor count (dose: 12.0 mg/kg/injection, schedule: Q01DX009 (ip), vehicle: saline) was 8 of 10.

In the case of `COc1ccc2nc3cc(Cl)ccc3c(NCCNCCNCCNc3c4ccc(Cl)cc4nc4ccc(OC)cc34)c2c1`, the survivor count (dose: 50.0 mg/kg/injection, schedule: Q01DX009 (ip), vehicle: Klucel (hydroxypropylcellulose) (HPC)) is reported as 0 of 10 and the survivor count [2] is reported as 0 of 10.

`COC1=C(NC(C)=O)C(=O)c2nc(-c3nc(C(=O)O)c(C)c(-c4ccc(OC)c(OC)c4O)c3N)ccc2C1=O` was tested, and the survivor count [2] was 10 of 10 and the survivor count (dose: 200.0 mg/kg/injection, schedule: Q01DX009 (ip), vehicle: Klucel (hydroxypropylcellulose) (HPC)) was 0 of 10.

`CCCCCCCCCCCCCCCCS(=O)CC(O)COC(=O)c1ccc(C(=O)OCC(O)CS(=O)CCCCCCCCCCCCCCCC)cc1` (configuration not stated) was tested, and the T/C (dose: 12.5 mg/kg/injection, schedule: Q01DX009 (ip), vehicle: saline + alcohol) was 130 % of control, the survivor count (dose: 25.0 mg/kg/injection, schedule: Q01DX009 (ip), vehicle: saline + Tween-80 + alcohol) was 10 of 10 and the T/C (dose: 50.0 mg/kg/injection, schedule: Q01DX009 (ip), vehicle: saline + alcohol) was 128 % of control [9 of 10 alive]. The survivor count (dose: 400.0 mg/kg/injection, schedule: Q01DX009 (ip), vehicle: saline + Tween-80 + alcohol) was 5 of 10 and the survivor count (dose: 400.0 mg/kg/injection, schedule: Q01DX009 (ip), vehicle: saline + alcohol) was 6 of 10.

In the case of `Cc1ccc[c]([Hg][Cl])c1N=Nc1ccccc1`, the survivor count (dose: 0.39 mg/kg/injection, schedule: Q01DX009 (ip), vehicle: saline with Tween-80) is reported as 10 of 10.

For `CCC(C(=O)O)C(=O)O.[NH-]CC1CCCC[N-]1.[Pt+2]`, the T/C [3] was 127 and 146 % of control [8 of 10 alive], the survivor count [4] was 4 of 10 and 10 of 10 and the survivor count [5] was 1 of 10.

With `Nc1ncnc2c1cnn2Cc1ccc(Cl)cc1` the T/C (dose: 50.0 mg/kg/injection, schedule: Q01DX009 (ip), vehicle: saline with Tween-80) was 130 % of control and the survivor count [4] was 9 of 10.

With `OCCOCCN1CCN(CCCN2c3ccccc3Sc3ccc(C(F)(F)F)cc32)CC1` the survivor count (dose: 25.0 mg/kg/injection, schedule: Q01DX009 (ip), vehicle: saline) was 9 of 10 and the survivor count [6] was 7 of 10.

`C[C@H](N)C(=O)N[C@@H]1[C@H]2C(=C(O)C[C@@H](O)[C@@H]2O)C(=O)O[C@]1(C)C(Cl)Cl` was tested, and the survivor count (dose: 3.0 mg/kg/injection, schedule: Q01DX009 (ip), vehicle: Klucel (hydroxypropylcellulose) (HPC)) was 9 of 10 and the survivor count (dose: 6.0 mg/kg/injection, schedule: Q01DX009 (ip), vehicle: Klucel (hydroxypropylcellulose) (HPC)) was 5 of 10.

With `OCC(F)(F)C(F)(F)C(F)(F)F` the survivor count (dose: 75.0 mg/kg/injection, schedule: Q01DX009 (ip), vehicle: saline) was 10 of 10, the survivor count (dose: 150.0 mg/kg/injection, schedule: Q01DX009 (ip), vehicle: saline) was 10 of 10 and the survivor count (dose: 300.0 mg/kg/injection, schedule: Q01DX009 (ip), vehicle: saline) was 10 of 10. For the same compound, the survivor count (dose: 600.0 mg/kg/injection, schedule: Q01DX009 (ip), vehicle: saline) was 10 of 10.

`C=C1C(=O)OCC1(C(=O)OCC)C(=O)OCC` was tested, and the T/C (dose: 16.0 mg/kg/injection, schedule: Q01DX009 (ip), vehicle: saline with Tween-80) was 125 % of control, the survivor count (dose: 32.0 mg/kg/injection, schedule: Q01DX009 (ip), vehicle: saline with Tween-80) was 1 of 10 and the survivor count (dose: 64.0 mg/kg/injection, schedule: Q01DX009 (ip), vehicle: saline with Tween-80) was 0 of 10.

In the case of `Cc1ccc(Cl)c2ccccc12`, the survivor count [1] is reported as 7 of 10.

For `COC1NC(=O)NC(=O)C1=[N+]=[N-]` (configuration not stated), the survivor count (dose: 16.0 mg/kg/injection, schedule: Q01DX009 (ip), vehicle: water) was 8 of 10.

For `O=C1CC2(C(=O)N1CN1CCOCC1)c1ccccc1-c1ccccc12`, the survivor count (dose: 800.0 mg/kg/injection, schedule: Q01DX009 (ip), vehicle: Klucel (hydroxypropylcellulose) (HPC)) was 1 of 10.

`C/C(=N\NC(N)=O)c1cccc(/C(C)=N/NC(N)=O)n1` was tested, and the survivor count [7] was 0 of 10.

`N=C(N)c1ccc(/C=C/c2ccc(C(=N)N)cc2O)cc1` was tested, and the survivor count (dose: 100.0 mg/kg/injection, schedule: Q01DX009 (ip), vehicle: water) was 1 of 10.

For `COP12(OCCO1)SC(C(F)(F)F)=C(C(F)(F)F)S2`, the survivor count (dose: 100.0 mg/kg/injection, schedule: Q01DX009 (ip), vehicle: saline with Tween-80) was 6 of 10 and the survivor count [7] was 0 of 10.

For `c1cn[nH]c1`, the survivor count [3] was 10 of 10.

`CC(=O)OC1C2(CC3N4C(=O)C5(CO)SSC4(CC31O)C(=O)N5C)OC(C)C(C)(C)C2=O` (configuration not stated) was tested, and the T/C (dose: 0.31 mg/kg/injection, schedule: Q01DX009 (ip), vehicle: saline) was 145 % of control and the T/C (dose: 1.25 mg/kg/injection, schedule: Q01DX009 (ip), vehicle: saline) was 135 % of control.

In the case of `Nc1nc(=S)c2[nH]cnc2[nH]1`, the survivor count [8] is reported as 10 of 10.

For `CCC1OCCN1C(C)C` (configuration not stated), the survivor count [3] was 10 of 10.

With `COc1ccc2c(c1)/C(=C/CCN(C)C)c1ccccc1S2` the survivor count [6] was 9 of 10.

With `CN(C)[C@@H]1C(=O)C(C(N)=O)=C(O)[C@@]2(O)C(=O)C3=C(O)c4c(O)ccc(Cl)c4[C@@](C)(O)[C@H]3C[C@@H]12` the survivor count [5] was 10 of 10.

In the case of `C=C(C)/C([O-])=N/[N+](C)(C)CC(O)CCCCCCCCCCCC` (configuration not stated), the survivor count (dose: 25.0 mg/kg/injection, schedule: Q01DX001 (ip), vehicle: saline) is reported as 10 of 10.

In the case of `N[C@@H](Cc1ccc(N(CCCl)CCCl)cc1)C(=O)O`, the T/C [8] is reported as 148 % of control, the T/C (dose: 4.9 mg/kg/injection, schedule: Q04DX003 (ip), vehicle: saline) is reported as 132 % of control and the survivor count (dose: 8.0 mg/kg/injection, schedule: Q01DX009 (ip), vehicle: saline) is reported as 8 of 10 and 9 of 10. The T/C [9] was 127 % of control, the survivor count [9] was 8 of 8 and the survivor count (dose: 14.3 mg/kg/injection, schedule: Q04DX003 (ip), vehicle: saline) was 8 of 8. For the same compound, the survivor count (dose: 15.0 mg/kg/injection, schedule: Q04DX003 (ip), vehicle: saline) was 8 of 8 and the survivor count (dose: 20.4 mg/kg/injection, schedule: Q04DX003 (ip), vehicle: saline) was 5 of 8.
